Binding data for 3 substances are collected here from doi:10.1101/2025.03.09.642134.

Protein sequences, listed by entry. Tags and fused reporters are not part of them.
UniProt P62491: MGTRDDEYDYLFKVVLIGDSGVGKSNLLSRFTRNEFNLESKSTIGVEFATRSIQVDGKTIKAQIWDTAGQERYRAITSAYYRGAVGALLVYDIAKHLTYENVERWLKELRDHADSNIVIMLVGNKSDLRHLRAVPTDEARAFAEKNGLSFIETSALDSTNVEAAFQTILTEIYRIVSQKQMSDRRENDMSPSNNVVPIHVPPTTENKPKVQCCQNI
UniProt Q92688: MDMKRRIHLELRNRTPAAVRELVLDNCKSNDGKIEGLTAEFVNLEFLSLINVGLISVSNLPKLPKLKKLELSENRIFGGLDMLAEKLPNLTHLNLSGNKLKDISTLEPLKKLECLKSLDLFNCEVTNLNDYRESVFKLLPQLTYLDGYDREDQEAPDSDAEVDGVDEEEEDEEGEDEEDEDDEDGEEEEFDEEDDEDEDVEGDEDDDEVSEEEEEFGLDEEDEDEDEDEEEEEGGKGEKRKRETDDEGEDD
UniProt P39687: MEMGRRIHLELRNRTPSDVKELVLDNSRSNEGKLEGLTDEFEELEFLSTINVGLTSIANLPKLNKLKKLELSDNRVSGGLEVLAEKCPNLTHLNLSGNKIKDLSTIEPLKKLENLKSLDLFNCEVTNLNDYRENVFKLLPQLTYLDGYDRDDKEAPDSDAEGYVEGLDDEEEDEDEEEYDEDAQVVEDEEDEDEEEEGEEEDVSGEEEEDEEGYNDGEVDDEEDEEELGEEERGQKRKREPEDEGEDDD
UniProt Q13148: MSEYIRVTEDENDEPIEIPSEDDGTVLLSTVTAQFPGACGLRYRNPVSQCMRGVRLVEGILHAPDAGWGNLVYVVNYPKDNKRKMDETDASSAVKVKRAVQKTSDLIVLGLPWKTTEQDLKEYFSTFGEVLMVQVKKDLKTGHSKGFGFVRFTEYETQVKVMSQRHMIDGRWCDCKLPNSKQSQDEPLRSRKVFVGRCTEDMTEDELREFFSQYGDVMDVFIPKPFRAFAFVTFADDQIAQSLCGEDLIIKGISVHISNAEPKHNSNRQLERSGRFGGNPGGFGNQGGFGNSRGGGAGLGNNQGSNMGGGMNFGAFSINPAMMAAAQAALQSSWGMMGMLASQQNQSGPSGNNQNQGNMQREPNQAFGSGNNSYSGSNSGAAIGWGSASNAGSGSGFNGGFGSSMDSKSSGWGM
UniProt P03427: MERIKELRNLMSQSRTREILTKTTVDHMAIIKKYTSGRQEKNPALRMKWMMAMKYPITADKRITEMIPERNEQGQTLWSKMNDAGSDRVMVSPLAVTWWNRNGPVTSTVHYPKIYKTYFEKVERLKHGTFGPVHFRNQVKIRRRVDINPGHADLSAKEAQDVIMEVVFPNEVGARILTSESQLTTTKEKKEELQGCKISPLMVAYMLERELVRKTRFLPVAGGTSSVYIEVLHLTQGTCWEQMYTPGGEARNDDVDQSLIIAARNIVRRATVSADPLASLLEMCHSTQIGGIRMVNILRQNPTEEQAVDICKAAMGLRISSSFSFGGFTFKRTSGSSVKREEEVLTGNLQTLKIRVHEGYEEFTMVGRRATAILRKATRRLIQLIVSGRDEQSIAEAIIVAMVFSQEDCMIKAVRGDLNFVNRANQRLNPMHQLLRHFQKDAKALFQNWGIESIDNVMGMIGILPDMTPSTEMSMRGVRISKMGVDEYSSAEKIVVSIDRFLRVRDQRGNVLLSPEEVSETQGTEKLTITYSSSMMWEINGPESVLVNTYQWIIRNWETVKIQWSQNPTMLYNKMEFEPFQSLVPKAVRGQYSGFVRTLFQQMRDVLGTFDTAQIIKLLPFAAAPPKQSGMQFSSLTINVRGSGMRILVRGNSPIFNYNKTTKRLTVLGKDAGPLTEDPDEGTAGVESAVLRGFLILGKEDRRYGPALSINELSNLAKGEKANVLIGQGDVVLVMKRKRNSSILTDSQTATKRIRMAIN
UniProt P05777: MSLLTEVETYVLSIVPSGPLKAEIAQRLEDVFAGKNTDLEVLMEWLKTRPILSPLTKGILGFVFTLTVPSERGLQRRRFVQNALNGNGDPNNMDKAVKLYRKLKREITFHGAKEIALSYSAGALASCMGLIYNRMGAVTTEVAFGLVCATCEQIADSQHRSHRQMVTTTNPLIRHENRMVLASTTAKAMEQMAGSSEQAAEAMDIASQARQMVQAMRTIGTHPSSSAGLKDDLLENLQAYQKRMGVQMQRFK
UniProt P15682: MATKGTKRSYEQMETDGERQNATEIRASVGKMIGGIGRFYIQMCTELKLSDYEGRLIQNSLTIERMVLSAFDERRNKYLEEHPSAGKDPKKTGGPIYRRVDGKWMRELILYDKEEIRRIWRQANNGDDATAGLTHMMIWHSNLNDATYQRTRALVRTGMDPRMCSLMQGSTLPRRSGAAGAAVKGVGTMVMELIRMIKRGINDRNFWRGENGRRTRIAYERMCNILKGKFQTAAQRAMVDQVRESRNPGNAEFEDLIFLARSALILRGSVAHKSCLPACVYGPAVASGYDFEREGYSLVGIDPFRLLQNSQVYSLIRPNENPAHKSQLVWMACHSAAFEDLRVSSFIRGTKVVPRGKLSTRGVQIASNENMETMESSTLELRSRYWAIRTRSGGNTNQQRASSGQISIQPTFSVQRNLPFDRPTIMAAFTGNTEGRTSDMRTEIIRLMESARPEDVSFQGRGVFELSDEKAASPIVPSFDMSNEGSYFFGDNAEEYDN

These are yes or no findings as the source states them, for the method shown. Binding seen in cells or lysates may run through a third protein. Some entries that bind do so weakly or less than the wild type.

For assay [1], the target named is RAB11A (human (endogenous in infected human lung epithelial cells)) (UniProt P62491).
Assay [2] has as its target ANP32B (human (endogenous in infected human lung epithelial cells)) (UniProt Q92688).
The target in assay [3] is ANP32A (human (endogenous in infected human lung epithelial cells)) (UniProt P39687).
Assay [4] has as its target T1, NONO (paraspeckle core protein, DBHS family) (human (endogenous in A549)) (UniProt Q15233).
T1 sequence: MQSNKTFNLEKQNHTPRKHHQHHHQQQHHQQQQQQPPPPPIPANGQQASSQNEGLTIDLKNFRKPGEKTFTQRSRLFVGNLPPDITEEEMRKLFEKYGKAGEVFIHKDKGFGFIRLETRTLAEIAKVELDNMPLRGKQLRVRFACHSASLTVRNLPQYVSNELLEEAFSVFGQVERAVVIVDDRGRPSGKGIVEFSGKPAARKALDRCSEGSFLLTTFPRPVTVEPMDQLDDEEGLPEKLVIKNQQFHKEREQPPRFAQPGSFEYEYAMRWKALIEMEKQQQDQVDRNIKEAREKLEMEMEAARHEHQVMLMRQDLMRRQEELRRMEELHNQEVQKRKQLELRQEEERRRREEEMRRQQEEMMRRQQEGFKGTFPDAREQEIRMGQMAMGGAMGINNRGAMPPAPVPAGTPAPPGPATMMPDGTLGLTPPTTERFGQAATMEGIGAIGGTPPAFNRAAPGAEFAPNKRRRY
Kind of assay: co-IP.

Assay [5] addresses T2, SFPQ (paraspeckle core protein, DBHS family) (human (endogenous in A549)) (UniProt P23246).
T2 sequence: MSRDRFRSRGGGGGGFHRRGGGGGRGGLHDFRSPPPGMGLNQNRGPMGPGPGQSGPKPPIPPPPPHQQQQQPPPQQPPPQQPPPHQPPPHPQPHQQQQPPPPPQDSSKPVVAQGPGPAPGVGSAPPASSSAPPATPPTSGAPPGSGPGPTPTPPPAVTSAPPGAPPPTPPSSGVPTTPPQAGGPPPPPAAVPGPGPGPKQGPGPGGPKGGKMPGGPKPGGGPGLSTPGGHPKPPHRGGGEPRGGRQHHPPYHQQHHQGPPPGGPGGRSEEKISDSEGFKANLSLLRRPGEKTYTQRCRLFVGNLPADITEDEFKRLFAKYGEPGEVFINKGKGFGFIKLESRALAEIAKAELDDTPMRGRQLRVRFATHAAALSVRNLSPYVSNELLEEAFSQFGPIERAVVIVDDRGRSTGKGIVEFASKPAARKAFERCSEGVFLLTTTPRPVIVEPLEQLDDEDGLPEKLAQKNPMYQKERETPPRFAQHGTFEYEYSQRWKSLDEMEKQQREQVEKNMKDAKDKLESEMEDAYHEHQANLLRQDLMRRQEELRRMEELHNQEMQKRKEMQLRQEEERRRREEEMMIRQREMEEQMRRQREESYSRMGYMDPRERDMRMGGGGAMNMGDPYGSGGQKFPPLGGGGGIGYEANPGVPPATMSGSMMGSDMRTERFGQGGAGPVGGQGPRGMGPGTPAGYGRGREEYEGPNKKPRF
Kind of assay: co-IP.

For assay [6], the target named is TDP-43 (TARDBP) (human (endogenous in infected human lung epithelial cells)) (UniProt Q13148).
Assay [7] addresses T3, KHSRP (human (endogenous in infected human lung epithelial cells)) (UniProt Q92945).
T3 sequence: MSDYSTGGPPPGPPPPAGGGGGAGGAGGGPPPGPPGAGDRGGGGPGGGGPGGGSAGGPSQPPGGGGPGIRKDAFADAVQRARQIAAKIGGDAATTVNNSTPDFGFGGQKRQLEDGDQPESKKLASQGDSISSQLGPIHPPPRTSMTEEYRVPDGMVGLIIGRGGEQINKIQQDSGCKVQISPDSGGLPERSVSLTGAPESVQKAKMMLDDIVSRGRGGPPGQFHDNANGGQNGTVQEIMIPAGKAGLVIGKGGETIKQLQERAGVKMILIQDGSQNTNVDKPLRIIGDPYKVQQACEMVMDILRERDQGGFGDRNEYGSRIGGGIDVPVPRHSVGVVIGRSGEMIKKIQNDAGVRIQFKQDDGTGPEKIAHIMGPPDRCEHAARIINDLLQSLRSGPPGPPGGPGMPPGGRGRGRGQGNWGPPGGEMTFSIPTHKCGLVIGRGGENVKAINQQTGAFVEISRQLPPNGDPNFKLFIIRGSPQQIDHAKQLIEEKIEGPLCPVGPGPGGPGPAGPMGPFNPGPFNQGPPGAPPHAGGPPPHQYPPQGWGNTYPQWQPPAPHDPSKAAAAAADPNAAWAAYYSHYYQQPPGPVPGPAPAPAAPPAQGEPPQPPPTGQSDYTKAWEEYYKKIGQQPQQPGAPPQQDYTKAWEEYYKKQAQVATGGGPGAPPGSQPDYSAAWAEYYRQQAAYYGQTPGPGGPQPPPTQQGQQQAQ

Turning to “PB2 (influenza A virus RNA-dependent RNA polymerase subunit) (from UniProt P03427 1-759)”, the binding result in assay [1] is “binds”.
Take “M1 (influenza A virus matrix protein 1) (from UniProt P05777 1-252)”: the binding result in assay [2] and in assay [3] was “binds” in each case.
For the substance “NP (influenza A virus nucleoprotein) (from UniProt P15682 1-498)”, the binding result in assay [4], in assay [5], in assay [6] and in assay [7] was “binds” throughout.
